Reference: patent US11155668B2, “Contact-killing, QAC functionalized thermoplastic polyurethane for catheter applications” (THE UNIVERSITY OF AKRON, priority 2017, dated 2021)
Some results were stated once for a whole list of compounds, not compound by compound. For at least one compound, name, drawing or mass did not settle the structure.

Tested on: E. coli
Assay: Contact-killing assay (adapted from ISO 22196) on allyl-TPU blade-coated samples modified with Qx-SH
Assay type: cell-based, Escherichia coli (ATCC 25922)
Details: 24 h contact-killing assay
Protocol: To functionalize the allyl-TPU blade-coated samples with Qx-SH reagents, thiol-ene reactions were performed using the same procedure described for rhodamine-SH. Briefly, blade-coated films of allyl-TPU (250 μm thick, 2.0 cm diameter, ca. 110 mg, 20 μmol allyl) were submerged in 2 mL of an Ar purged (30 min) aqueous solution containing Qx-SH (10.0 mM) and LAP (5.0 mM), and allowed to pre-soak for 30 min under Ar. UV-treated samples were irradiated for 30 min (λ=365 nm, I=1.2 mW·cm^−2) while phys. ads. samples were kept in the absence of UV light for 30 min to control for any antimicrobial activity that is contributed by non-covalently attached QAC. Following treatment, the dye/photoinitiator solutions were drawn up and discarded, and the samples were rinsed with 5 mL of DI water (3×) then submerged in 5 mL of DI water. The samples were further rinsed with 10% EtOH (3×) and soaked in 10% EtOH for 15 min (3×), rinsing with 10% EtOH in between each soak.
For antimicrobial testing, blade-coated samples and catheter tubing of allyl-TPU were sterilized by EtO sterilization using an Anprolene benchtop sterilizer (Anderson Products, Inc., Haw River, N.C.) following the manufacturer's protocol to deliver approximately 0.5 cc·L^−1 of EtO gas over a 12 h sterilization cycle at 35% humidity and room temperature, followed by a 48 h purge under vacuum. The bacterial strains used in this study included Staphylococcus epidermidis (ATCC 12228), Staphylococcus aureus (25923), Escherichia coli (ATCC 25922), Pseudomonas aeruginosa (ATCC 27853), Enterococcus faecalis (ATCC 29212), and methicillin-resistant Staphylococcus aureus (MRSA) (ATCC BAA-41).
The contact-killing assay was performed on physically adsorbed (phys. ads.), and UV-treated blade-coated samples modified with a series of Qx-SH reagents using a method adapted from ISO 22196. See, International Organization for Standardization. Measurement of antibacterial activity on plastics and other non porous surfaces (ISO 22196:2011), the disclosure of which is incorporated herein by reference in its entirety. Briefly, the samples were inoculated with same day cultures of select bacteria (e.g. E. coli, S. epidermidis) in dilute nutrient media (0.2% tryptic soy broth (TSB) in 1× phosphate buffered saline (PBS)) at approximately 150 colony-forming units (CFU)·mm^−2. Generally, 35 uL of 8.5×10^5 CFU/mL cultures were dispersed across the surface of the sample using sterile polypropylene cover films (area=198 mm^2). […] Following incubation, surviving cells were recovered from the samples using vigorous agitation (i.e. vortexing for 20 s in PBS). Surviving cells were enumerated via 10-fold series dilution and plating 100 μL onto tryptic soy agar (TSA), incubating overnight and then plate counting CFU. The mean CFU recovered per sample (CFU/sample) were calculated by accounting for dilutions. Internal controls samples of polypropylene and chlorhexidine treated with polypropylene were included in the assay.

Structure (SMILES): CCCCCCCCCCCC[N+](C)(C)CCCCCCCCOC(=O)CCS.[Cl-] [Q12-SH]
- log reduction in E. coli compared to the negative control (phys. ads. samples): 1-3 log
- reduction in E. coli compared to the negative control (phys. ads. samples): 90-99.9%

Structure (SMILES): CCCCCCCCCCCCCC[N+](C)(C)CCCCCCCCOC(=O)CCS.[Cl-] [Q14-SH]
- log reduction in E. coli compared to the negative control (UV-treated samples): 1-3 log
- reduction in E. coli compared to the negative control (UV-treated samples): 90-99.9%
- log reduction in E. coli compared to the negative control (phys. ads. samples): 1-3 log
- reduction in E. coli compared to the negative control (phys. ads. samples): 90-99.9%
